This is one part of the list.
These targets were tested with Cc1cc(ccc1-c1ccccc1)C(=O)N1CCCN(CC1)C(=O)CCl [compound 10] (assay: probe-labelled cysteine peptide fold change vs DMSO (competition) (log2 fold change); higher = less target engagement (more negative = stronger competition)). Settings: 10 µM; THP-1; incubation time: 4 h.
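Note: competitive profiling in live THP-1 cells: cysteine peptides tagged with an iodoacetamide desthiobiotin (IA-DTB) probe, intensity after compound treatment relative to DMSO-treated cells.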

Chains of the proteins cited; added tags and fusions are not shown. Lines headed by an entry give the natural chain unless they say otherwise; changes in a name come on top.
UniProt P23634: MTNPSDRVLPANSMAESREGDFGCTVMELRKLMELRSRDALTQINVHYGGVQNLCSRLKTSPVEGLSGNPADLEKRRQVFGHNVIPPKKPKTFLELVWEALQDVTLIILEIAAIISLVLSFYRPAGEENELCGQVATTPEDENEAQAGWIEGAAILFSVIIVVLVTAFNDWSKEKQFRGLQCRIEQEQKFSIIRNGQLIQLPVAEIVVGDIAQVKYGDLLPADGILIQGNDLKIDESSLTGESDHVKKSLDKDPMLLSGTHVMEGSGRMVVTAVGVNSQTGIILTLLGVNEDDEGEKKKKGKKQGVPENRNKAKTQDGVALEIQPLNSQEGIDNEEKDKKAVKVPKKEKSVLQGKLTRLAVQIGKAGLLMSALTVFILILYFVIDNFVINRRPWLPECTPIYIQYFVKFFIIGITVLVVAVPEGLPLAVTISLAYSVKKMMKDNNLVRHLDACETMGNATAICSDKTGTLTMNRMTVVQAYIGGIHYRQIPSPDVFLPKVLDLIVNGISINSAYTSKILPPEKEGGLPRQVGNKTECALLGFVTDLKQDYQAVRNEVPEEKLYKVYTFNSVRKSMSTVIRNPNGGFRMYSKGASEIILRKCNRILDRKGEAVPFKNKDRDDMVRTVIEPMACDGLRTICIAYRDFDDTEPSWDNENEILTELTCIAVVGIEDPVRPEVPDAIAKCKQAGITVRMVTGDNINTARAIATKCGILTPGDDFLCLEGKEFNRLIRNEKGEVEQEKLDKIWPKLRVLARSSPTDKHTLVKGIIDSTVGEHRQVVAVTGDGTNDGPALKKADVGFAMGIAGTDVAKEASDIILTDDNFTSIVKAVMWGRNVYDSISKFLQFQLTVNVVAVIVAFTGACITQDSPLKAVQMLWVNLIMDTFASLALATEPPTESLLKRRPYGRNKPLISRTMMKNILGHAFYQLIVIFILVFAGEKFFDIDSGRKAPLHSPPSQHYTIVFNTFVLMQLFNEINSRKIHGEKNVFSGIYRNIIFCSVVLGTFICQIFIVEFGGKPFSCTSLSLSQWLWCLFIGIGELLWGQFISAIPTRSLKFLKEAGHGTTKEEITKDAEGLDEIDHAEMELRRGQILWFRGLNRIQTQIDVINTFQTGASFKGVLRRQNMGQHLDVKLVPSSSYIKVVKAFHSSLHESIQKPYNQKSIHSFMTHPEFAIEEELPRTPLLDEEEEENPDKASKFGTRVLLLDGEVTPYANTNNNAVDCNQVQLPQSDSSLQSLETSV
UniProt O75348, whole entry, looked up: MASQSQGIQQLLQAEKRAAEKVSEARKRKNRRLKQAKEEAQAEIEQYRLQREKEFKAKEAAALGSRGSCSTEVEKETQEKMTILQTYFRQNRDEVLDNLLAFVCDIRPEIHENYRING
UniProt Q9HD20: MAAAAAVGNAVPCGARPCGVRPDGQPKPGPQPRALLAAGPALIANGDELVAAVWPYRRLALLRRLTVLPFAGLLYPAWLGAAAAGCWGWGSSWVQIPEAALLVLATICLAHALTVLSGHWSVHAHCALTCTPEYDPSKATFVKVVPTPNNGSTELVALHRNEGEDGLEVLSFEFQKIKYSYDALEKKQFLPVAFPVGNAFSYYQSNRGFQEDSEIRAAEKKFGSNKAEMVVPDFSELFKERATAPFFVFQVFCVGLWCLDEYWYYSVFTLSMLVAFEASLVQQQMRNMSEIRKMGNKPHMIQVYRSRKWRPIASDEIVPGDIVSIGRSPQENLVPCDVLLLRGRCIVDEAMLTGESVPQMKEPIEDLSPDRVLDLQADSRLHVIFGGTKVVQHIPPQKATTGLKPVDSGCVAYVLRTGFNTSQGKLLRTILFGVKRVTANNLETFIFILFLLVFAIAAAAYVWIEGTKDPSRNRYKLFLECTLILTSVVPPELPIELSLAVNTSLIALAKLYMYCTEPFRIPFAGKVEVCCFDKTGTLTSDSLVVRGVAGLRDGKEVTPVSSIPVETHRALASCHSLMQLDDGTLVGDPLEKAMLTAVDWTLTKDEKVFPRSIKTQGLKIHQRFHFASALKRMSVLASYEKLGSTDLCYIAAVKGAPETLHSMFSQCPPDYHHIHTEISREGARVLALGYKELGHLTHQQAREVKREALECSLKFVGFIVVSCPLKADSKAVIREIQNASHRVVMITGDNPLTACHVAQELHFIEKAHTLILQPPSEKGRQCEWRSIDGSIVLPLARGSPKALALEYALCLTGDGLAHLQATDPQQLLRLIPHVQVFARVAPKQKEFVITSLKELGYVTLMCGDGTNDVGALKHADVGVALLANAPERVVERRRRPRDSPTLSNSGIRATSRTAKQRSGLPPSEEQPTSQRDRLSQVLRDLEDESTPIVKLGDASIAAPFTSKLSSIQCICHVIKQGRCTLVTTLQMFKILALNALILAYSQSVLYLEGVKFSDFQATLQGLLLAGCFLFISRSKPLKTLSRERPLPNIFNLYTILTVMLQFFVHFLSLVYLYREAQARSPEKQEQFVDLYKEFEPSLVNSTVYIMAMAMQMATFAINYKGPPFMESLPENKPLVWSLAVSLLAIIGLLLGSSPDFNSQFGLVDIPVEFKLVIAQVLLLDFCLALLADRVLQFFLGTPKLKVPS
UniProt P38606, whole entry, looked up: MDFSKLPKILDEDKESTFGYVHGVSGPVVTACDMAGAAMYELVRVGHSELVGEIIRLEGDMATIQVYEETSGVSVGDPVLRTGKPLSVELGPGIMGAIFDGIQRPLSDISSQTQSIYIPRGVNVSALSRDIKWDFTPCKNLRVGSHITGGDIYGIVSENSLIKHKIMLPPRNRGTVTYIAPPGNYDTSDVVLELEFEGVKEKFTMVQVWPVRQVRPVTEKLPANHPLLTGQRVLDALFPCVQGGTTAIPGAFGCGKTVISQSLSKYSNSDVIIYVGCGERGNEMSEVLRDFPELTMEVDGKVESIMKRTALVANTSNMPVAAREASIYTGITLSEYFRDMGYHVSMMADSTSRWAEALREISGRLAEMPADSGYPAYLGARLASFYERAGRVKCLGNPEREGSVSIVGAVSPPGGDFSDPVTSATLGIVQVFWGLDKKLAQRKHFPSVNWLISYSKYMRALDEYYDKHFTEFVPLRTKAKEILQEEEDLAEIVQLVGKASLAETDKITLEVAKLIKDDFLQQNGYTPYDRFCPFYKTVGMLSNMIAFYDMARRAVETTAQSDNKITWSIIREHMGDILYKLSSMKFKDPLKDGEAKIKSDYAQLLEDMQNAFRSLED
UniProt P21283, whole entry, looked up: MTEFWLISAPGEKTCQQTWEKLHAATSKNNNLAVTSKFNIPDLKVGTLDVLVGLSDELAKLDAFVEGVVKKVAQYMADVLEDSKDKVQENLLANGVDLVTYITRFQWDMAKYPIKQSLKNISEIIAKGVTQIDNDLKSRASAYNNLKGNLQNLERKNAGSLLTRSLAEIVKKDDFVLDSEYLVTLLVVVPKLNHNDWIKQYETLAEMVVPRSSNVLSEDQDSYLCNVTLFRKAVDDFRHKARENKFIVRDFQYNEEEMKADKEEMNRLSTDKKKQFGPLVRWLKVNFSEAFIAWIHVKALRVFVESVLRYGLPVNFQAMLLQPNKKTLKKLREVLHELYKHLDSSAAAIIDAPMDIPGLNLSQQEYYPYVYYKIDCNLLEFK
UniProt Q6PL18: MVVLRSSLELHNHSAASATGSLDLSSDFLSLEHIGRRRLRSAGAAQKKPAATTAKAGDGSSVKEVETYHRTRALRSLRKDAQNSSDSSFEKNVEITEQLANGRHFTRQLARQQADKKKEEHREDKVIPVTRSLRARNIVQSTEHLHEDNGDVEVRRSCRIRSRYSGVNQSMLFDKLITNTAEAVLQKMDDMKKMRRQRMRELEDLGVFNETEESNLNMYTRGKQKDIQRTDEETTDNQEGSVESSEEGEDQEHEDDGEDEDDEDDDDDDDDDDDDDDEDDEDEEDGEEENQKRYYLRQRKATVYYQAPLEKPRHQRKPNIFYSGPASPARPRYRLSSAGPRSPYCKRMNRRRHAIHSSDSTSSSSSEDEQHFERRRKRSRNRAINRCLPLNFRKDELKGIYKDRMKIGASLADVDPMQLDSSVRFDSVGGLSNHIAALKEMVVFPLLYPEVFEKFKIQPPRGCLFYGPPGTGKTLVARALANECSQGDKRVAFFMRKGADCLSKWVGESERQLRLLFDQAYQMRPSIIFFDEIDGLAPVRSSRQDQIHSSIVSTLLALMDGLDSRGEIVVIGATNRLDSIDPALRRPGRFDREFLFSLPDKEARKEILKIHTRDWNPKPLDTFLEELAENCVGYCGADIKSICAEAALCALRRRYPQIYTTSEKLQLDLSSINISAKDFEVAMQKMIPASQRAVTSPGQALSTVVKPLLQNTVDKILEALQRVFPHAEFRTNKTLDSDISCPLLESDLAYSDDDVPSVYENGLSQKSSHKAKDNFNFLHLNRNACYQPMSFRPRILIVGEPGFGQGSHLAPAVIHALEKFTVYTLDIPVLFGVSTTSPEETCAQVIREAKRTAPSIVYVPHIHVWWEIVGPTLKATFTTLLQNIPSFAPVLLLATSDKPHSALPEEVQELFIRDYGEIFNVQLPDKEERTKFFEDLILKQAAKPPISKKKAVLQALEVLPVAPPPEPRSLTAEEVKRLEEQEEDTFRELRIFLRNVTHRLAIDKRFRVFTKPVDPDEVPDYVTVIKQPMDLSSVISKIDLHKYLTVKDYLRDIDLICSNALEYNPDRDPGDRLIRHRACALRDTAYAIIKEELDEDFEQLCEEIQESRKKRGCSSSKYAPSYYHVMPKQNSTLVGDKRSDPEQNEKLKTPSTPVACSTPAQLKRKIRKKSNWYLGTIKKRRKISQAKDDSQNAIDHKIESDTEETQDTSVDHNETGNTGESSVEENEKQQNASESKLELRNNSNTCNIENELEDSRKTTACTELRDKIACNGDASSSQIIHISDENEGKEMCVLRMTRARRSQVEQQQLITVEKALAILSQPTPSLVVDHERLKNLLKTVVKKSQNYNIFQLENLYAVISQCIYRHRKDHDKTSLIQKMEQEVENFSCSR
UniProt Q9BZE9, whole entry, looked up: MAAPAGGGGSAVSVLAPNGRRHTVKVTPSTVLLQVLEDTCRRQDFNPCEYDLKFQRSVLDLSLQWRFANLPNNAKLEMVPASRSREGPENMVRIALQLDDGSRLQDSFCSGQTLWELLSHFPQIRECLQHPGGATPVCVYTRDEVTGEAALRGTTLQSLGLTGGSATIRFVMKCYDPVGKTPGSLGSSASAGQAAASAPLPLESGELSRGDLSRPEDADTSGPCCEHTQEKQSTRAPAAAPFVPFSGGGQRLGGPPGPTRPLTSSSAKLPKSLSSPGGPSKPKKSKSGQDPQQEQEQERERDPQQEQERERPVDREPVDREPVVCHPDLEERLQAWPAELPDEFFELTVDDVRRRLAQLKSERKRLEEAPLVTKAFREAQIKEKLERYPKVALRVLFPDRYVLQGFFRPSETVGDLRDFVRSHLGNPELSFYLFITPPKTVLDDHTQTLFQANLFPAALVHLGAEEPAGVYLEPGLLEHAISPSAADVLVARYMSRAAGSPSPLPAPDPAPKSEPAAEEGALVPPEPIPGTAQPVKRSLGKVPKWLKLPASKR
UniProt Q9H2C2: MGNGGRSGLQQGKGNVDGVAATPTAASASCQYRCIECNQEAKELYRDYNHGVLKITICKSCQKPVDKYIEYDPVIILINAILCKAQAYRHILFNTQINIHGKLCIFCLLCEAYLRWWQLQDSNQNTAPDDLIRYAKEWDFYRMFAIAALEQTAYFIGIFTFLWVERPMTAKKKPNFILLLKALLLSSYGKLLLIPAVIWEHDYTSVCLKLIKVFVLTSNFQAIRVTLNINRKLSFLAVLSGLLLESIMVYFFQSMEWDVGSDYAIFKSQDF
UniProt O95671: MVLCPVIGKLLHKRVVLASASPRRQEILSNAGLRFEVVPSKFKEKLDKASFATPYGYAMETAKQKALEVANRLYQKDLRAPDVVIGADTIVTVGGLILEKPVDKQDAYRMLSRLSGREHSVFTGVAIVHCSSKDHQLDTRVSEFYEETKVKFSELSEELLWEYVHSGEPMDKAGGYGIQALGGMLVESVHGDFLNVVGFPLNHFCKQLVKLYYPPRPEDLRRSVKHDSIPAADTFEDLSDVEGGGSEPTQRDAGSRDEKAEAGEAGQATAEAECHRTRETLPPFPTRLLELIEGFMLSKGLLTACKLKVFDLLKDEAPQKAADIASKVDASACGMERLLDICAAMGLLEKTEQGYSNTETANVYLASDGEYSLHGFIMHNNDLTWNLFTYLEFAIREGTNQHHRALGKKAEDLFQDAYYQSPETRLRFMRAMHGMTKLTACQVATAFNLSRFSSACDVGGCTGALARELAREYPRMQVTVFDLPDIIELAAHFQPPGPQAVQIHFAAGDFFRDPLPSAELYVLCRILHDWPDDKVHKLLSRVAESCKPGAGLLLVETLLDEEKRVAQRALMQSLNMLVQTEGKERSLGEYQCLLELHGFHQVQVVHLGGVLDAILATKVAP

Row | Target | probe-labelled cysteine peptide fold change
1 | ATP2B4_P23634_24_EGDFGCTVMELR (UniProt P23634) | -0.125
2 | ATL3_Q6DD88_262_NHIHSCFSDVTCFLLPHPGLQVATSPDFDGK (UniProt Q6DD88) | 0.158
3 | ATM_Q13315_2112_NMQWDHCTSVSK (UniProt Q13315) | -0.249
4 | ATP1B1_P05026_126_DSAQRDDMIFEDCGDVPSEPK (UniProt P05026) | -0.185
5 | ATP6V1G1_O75348_104_QNRDEVLDNLLAFVCDIRPEIHENYR (UniProt O75348) | 0.184
6 | ATP13A1_Q9HD20_723_FVGFIVVSCPLK (UniProt Q9HD20) | -0.202
7 | ASCC3_Q8N3C0_2101_GKPESCAVTPR (UniProt Q8N3C0) | 0.0246

Same assay, conditions: 50 µM; THP-1; incubation time: 4 h

Row | Target | probe-labelled cysteine peptide fold change
8 | ATP6V1A_P38606_240+254_VLDALFPCVQGGTTAIPGAFGCGK (UniProt P38606) | -0.0323
9 | ATP6V1C1_P21283_225_SSNVLSEDQDSYLCNVTLFR (UniProt P21283) | 0.257
10 | ATP1A1_P05023_663_ACVVHGSDLK (UniProt P05023) | -0.145
11 | ATAD2_Q6PL18_484_ALANECSQGDKR (UniProt Q6PL18) | -0.0487
12 | ASPSCR1_Q9BZE9_127_ECLQHPGGATPVCVYTR (UniProt Q9BZE9) | 0.0335
13 | ATP2A1_O14983_561_CLALATR (UniProt O14983) | -0.151
14 | ARV1_Q9H2C2_37_CIECNQEAK (UniProt Q9H2C2) | 0.213
15 | ATP6V0A1_Q93050_310_AIYHTLNLCNIDVTQK (UniProt Q93050) | 0.378
16 | ASAP1_Q9ULH1_557_TCSTSSAK (UniProt Q9ULH1) | -0.132
17 | ASAP2_O43150_354_LNLLTCQVK (UniProt O43150) | 0.0897
18 | ATP2A2_P16615_560_CLALATHDNPLR (UniProt P16615) | 0.204
19 | ATP13A1_Q9HD20_862_ELGYVTLMCGDGTNDVGALK (UniProt Q9HD20) | -0.0554
20 | ASCC3_Q8N3C0_366_KAGEDLEVSEGLMCFDPK (UniProt Q8N3C0) | -0.375
21 | ASCC3_Q8N3C0_1315_HPPHTELLDLQPLPITALGCK (UniProt Q8N3C0) | 0.138
22 | ASB1_Q9Y576_36_EQFCDHPLEHCEDTR (UniProt Q9Y576) | -0.0192
23 | ATP13A1_Q9HD20_711_EALECSLK (UniProt Q9HD20) | 0.00247
24 | ATAD2_Q6PL18_1246_NNSNTCNIENELEDSRK (UniProt Q6PL18) | 0.0325
25 | ATP6V1A_P38606_532_FCPFYK (UniProt P38606) | 0.0728
26 | ATPAF1_Q5TC12_194_AQSCPTFLCALPR (UniProt Q5TC12) | 0.0303
27 | ATF2_P15336_79_NCEEVGLFNELASPFENEFK (UniProt P15336) | -0.425

Row | Target | probe-labelled cysteine peptide fold change
28 | ATAD2_Q6PL18_1156_TPSTPVACSTPAQLKR (UniProt Q6PL18) | -0.518
29 | ATR_Q13535_1343_GCQDANSQAR (UniProt Q13535) | -0.177
30 | ATP6V1B2_P21281_425_DHADVSNQLYACYAIGK (UniProt P21281) | 0.207
31 | ATP9B_O43861_551_AIVLCHNVTPVYESR (UniProt O43861) | -0.264
32 | ATAD2B_Q9ULI0_53_AASCPAAK (UniProt Q9ULI0) | -0.45
33 | ATG7_O95352_406_QPLYEFEDCLGGGKPK (UniProt O95352) | -0.11
34 | ASMTL_O95671_305_GLLTACK (UniProt O95671) | -0.148
35 | ASMTL_O95671_441_LTACQVATAFNLSR (UniProt O95671) | -0.389
36 | ATP11B_Q9Y2G3_741_SDSECAEQLR (UniProt Q9Y2G3) | 0.0989
37 | ATP5F1C_P36542_103_GLCGAIHSSIAK (UniProt P36542) | -0.117
38 | ATR_Q13535_1430_AQDSAAYAIQELLSIYDCR (UniProt Q13535) | -0.00628
39 | ASPSCR1_Q9BZE9_325_ERPVDREPVDREPVVCHPDLEER (UniProt Q9BZE9) | 0.00354
40 | ATP2B4_P23634_24_EGDFGCTVMELR (UniProt P23634) | -0.0376
41 | ATL3_Q6DD88_262_NHIHSCFSDVTCFLLPHPGLQVATSPDFDGK (UniProt Q6DD88) | 0.0827
42 | ATM_Q13315_2112_NMQWDHCTSVSK (UniProt Q13315) | -0.607
43 | ATP1B1_P05026_126_DSAQRDDMIFEDCGDVPSEPK (UniProt P05026) | -0.351
44 | ATP6V1G1_O75348_104_QNRDEVLDNLLAFVCDIRPEIHENYR (UniProt O75348) | 0.147
45 | ATP13A1_Q9HD20_723_FVGFIVVSCPLK (UniProt Q9HD20) | 0.197
46 | ASCC3_Q8N3C0_2101_GKPESCAVTPR (UniProt Q8N3C0) | -0.0464

Reference: the supplement of paper PMC12067093, “Discovery and optimisation of a covalent ligand for TRIM25 and its application to targeted protein ubiquitination” (Chemical Science, 2025)
